± gives the uncertainty stated by the source. Many entries were measured with a wide error.
Test: self-splicing fitness, log relative to wild type (ln ratio); higher = more splicing; Tetrahymena group I intron in knt gene, E. coli kanamycin selection, DiMSum; sequences stand for … in CUCUCU…GGAGGGAAAAGUUAUCAGGCAUGCACCUGGUAGCUAGUCUUUAAACCAAUAGAUUGCAUCGGUUUAAAAGGCAAGACCGUCAAAUUGCGGGAAAGGGGUCAACAGCCGUUCAGUACCAAGUCUCAGGGGAAACUUUGAGAUGGCCUUGCAAAGGGUAUGGUAAUAAGCUGACGGACAUGGUCCUAACCACGCAGCCAAGUCCUAAGUCAACAGAUCUUCUGUUGAUAUGGAUGCAGUUCACAGACUAAAUGUCGGUCGGGGAAGAUGUAUUCUUCUCAUAAGAUAUAGUCGGACCUCUCCUUAAUGGGAGCUAGCGGAUGAAGUGAUGCAACACUGGAGCCGCUGGGAACUAAUUUGUAUGCGAAAGUAUAUUGAUUAGUUUUGGAGUACUCGUGGUCG
Procedure, shortened: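 The eight P1ex-region nucleotides of an intron in the knt kanamycin-resistance gene on pET-22b(+) were all randomised and the library put into E. coli BL21(DE3). Six replicate transformations were grown overnight at 37°C or 30°C on LB agar with or without 25 μg/mL kanamycin, together with 100 μg/mL carbenicillin, 50 μM IPTG and 0.2% rhamnose. Colonies were pooled and amplicon-sequenced on an Illumina HiSeq 2500. Fitness from DiMSum is the error-weighted combination of wild-type-normalised replicate fold changes, kanamycin over none.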

| Sequence | self-splicing fitness (ln) (30 °C) | self-splicing fitness (ln) (37 °C) |
| --- | --- | --- |
| CGGAAGCAAUAUUACGAGGG | -0.374 ± 0.41 | -2.72 ± 1.1 |
| CUAGAGCAAUAUUACGCGUC | -3.79 ± 0.52 | -1.98 ± 0.51 |
| GGAUAGCAAUAUUACGCGCC | – | 0.819 ± 0.51 |
| GUCGAGCAAUAUUACGAGCA | – | -0.634 ± 0.52 |
| AAUGAGCAAUAUUACGAGAC | -2.61 ± 0.51 | -2.56 ± 0.76 |
| CUGAAGCAAUAUUACGCACC | – | -3.25 ± 1 |
| CUCAAGCAAUAUUACGAUCC | – | -3.53 ± 0.73 |
| UGAAAGCAAUAUUACGUGUG | -1.67 ± 0.077 | -0.52 ± 0.081 |
| GCGGAGCAAUAUUACGUGAC | -0.953 ± 0.55 | – |
| UCACAGCAAUAUUACGACCC | -1.91 ± 0.62 | -1.08 ± 0.59 |
| CCCUAGCAAUAUUACGCACC | -3.32 ± 0.76 | – |
| ACUAAGCAAUAUUACGGGGA | -1.84 ± 0.12 | -1.55 ± 0.13 |
| UCAGAGCAAUAUUACGCGCC | – | -1.6 ± 0.67 |
| UCAGAGCAAUAUUACGAAGA | -1.36 ± 0.74 | – |
| GGCGAGCAAUAUUACGUAGG | -3.38 ± 0.62 | -1.98 ± 0.65 |
| UAAGAGCAAUAUUACGAGAC | -2.64 ± 0.56 | – |
| AAGGAGCAAUAUUACGCCUU | – | -2.76 ± 1.1 |
| CGGGAGCAAUAUUACGUUAC | -4.64 ± 1 | -2.35 ± 0.64 |
| UAUAAGCAAUAUUACGGUCC | – | -2.04 ± 0.51 |
| GCGUAGCAAUAUUACGAGCG | -0.887 ± 0.15 | -1.62 ± 0.17 |
| UGAGAGCAAUAUUACGCUAU | -3.09 ± 0.35 | -1.48 ± 0.46 |
| UGGCAGCAAUAUUACGCUGC | – | -2.96 ± 0.77 |
| AGUGAGCAAUAUUACGCCCG | – | -1.4 ± 0.9 |
| UCUCAGCAAUAUUACGAAAU | -4.76 ± 1 | – |

Individual results from above.
CUGAAGCAAUAUUACGCACC | self-splicing fitness (ln) (37 °C): -3.25 ± 1
CUCAAGCAAUAUUACGAUCC | self-splicing fitness (ln) (37 °C): -3.53 ± 0.73
UGGCAGCAAUAUUACGCUGC | self-splicing fitness (ln) (37 °C): -2.96 ± 0.77

Going on with the list:

| Sequence | self-splicing fitness (ln) (30 °C) | self-splicing fitness (ln) (37 °C) |
| --- | --- | --- |
| CUAUAGCAAUAUUACGAUCG | -0.256 ± 0.075 | 0.439 ± 0.1 |
| CAUAAGCAAUAUUACGUACC | – | -1.85 ± 0.68 |
| CAGAAGCAAUAUUACGCUAC | – | -0.075 ± 0.55 |
| UUCAAGCAAUAUUACGAGCA | -1.01 ± 0.1 | -0.0614 ± 0.12 |
| UCCGAGCAAUAUUACGAUCA | -4.24 ± 0.59 | – |
| UCGCAGCAAUAUUACGUAAA | -1.69 ± 0.094 | -1.12 ± 0.12 |
| GCCUAGCAAUAUUACGCCUG | -3.96 ± 1 | -1.72 ± 0.7 |
| CUUCAGCAAUAUUACGCUCC | – | -3.4 ± 0.73 |
| GACUAGCAAUAUUACGUGUC | – | -3.12 ± 0.6 |
| UCGUAGCAAUAUUACGCAGC | – | -3.16 ± 0.74 |
| ACCGAGCAAUAUUACGCCGG | -4.79 ± 0.59 | -2.58 ± 0.62 |
| GAGCAGCAAUAUUACGAGGC | – | -1.54 ± 1.2 |
| AUGGAGCAAUAUUACGCGGC | – | -0.19 ± 0.92 |
| UGGGAGCAAUAUUACGCCUC | – | -2.99 ± 1 |
| GCGAAGCAAUAUUACGCUAC | -3.21 ± 0.84 | -2.54 ± 1.1 |
| GGGUAGCAAUAUUACGAAAG | -3.48 ± 1.1 | – |
| UCAUAGCAAUAUUACGGUAU | -5.04 ± 1 | – |
| GUUUAGCAAUAUUACGUUUA | -2.69 ± 0.23 | -0.853 ± 0.17 |
| CUCAAGCAAUAUUACGGACC | -3.48 ± 0.6 | -1.06 ± 0.53 |
| GGGGAGCAAUAUUACGAACG | -2.3 ± 0.52 | – |
| UCGGAGCAAUAUUACGCCUG | – | -2.84 ± 0.75 |
| UUCCAGCAAUAUUACGUUCU | -4.85 ± 0.51 | – |
| UUUGAGCAAUAUUACGCACU | – | -0.729 ± 0.65 |
| UCAGAGCAAUAUUACGCCCA | – | -1.11 ± 0.73 |

From the supplement of paper PMC7877785
